Patent US20060239913A1 (priority 2003, published 2006)

Assay: peptide synthesis
Conditions: conjugation step, SYMMETRY C18 5 um 100 A 250*4.6 mm

Substance: p-aminobenzoyl-Gly-Pro-D-Leu-D-Ala-NHOH on Gd^3+ chelator (DOTA)
- crude HPLC purity: 92%
